Measured values reported in article PMC3179509.

The chains behind the UniProt entries cited, without tags or fusion partners.
UniProt O75376: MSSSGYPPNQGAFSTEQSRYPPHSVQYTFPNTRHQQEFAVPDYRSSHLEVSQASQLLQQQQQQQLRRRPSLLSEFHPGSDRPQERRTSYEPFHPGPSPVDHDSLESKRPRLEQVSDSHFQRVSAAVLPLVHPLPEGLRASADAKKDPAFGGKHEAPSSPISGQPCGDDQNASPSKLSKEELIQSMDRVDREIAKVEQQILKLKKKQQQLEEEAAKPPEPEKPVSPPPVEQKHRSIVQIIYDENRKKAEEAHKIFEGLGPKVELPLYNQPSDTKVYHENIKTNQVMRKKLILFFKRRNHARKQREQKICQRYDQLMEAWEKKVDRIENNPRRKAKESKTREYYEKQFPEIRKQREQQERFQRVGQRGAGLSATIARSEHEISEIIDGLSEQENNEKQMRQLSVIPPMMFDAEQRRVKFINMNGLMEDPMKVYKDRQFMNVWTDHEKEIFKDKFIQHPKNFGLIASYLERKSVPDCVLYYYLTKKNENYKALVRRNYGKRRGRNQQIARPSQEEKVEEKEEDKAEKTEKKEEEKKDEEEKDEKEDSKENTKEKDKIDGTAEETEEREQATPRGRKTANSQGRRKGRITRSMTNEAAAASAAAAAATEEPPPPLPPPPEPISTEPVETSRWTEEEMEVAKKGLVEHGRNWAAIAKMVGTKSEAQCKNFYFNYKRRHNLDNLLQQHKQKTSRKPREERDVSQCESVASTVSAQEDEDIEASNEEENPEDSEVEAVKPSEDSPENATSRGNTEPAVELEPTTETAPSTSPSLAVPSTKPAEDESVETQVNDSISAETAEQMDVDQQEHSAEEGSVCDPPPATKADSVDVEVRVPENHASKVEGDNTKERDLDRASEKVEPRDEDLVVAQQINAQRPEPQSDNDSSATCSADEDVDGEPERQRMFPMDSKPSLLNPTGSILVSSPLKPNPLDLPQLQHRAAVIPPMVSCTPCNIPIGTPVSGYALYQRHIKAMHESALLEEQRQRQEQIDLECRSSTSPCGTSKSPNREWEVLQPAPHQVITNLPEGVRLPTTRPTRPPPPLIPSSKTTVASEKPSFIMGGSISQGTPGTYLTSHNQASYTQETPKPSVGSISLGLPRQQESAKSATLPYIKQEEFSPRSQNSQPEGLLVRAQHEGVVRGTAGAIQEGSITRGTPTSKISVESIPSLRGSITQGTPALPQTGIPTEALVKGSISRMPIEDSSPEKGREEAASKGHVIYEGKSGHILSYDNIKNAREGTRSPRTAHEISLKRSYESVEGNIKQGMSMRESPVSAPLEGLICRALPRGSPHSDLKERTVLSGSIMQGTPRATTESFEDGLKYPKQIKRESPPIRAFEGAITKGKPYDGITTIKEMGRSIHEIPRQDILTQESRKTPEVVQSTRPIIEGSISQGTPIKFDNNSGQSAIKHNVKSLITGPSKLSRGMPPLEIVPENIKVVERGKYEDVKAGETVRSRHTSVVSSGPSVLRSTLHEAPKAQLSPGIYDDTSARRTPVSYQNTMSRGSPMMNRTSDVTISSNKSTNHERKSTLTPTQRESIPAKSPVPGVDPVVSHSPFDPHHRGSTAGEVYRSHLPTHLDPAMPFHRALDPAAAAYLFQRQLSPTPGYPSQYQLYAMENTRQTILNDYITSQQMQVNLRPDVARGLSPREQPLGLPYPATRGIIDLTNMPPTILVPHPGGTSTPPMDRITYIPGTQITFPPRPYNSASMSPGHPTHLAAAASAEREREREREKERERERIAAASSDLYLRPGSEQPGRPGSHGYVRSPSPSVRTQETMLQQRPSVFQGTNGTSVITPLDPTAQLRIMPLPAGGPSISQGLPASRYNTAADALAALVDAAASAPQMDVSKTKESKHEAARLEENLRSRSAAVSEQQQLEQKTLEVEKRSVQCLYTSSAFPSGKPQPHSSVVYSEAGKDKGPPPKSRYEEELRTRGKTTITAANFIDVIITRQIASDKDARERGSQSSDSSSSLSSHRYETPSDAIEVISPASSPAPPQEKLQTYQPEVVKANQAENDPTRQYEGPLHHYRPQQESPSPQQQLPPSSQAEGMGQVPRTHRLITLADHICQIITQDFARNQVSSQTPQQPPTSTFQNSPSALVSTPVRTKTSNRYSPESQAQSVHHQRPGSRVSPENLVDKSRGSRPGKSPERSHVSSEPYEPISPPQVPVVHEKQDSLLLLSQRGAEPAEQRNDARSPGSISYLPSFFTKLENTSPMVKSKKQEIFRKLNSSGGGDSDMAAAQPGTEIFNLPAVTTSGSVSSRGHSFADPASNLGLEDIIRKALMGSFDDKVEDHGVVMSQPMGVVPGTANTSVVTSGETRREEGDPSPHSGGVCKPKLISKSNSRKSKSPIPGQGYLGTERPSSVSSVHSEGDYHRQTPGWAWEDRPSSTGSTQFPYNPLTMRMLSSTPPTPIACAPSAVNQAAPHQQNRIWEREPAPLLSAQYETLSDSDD
UniProt P11142: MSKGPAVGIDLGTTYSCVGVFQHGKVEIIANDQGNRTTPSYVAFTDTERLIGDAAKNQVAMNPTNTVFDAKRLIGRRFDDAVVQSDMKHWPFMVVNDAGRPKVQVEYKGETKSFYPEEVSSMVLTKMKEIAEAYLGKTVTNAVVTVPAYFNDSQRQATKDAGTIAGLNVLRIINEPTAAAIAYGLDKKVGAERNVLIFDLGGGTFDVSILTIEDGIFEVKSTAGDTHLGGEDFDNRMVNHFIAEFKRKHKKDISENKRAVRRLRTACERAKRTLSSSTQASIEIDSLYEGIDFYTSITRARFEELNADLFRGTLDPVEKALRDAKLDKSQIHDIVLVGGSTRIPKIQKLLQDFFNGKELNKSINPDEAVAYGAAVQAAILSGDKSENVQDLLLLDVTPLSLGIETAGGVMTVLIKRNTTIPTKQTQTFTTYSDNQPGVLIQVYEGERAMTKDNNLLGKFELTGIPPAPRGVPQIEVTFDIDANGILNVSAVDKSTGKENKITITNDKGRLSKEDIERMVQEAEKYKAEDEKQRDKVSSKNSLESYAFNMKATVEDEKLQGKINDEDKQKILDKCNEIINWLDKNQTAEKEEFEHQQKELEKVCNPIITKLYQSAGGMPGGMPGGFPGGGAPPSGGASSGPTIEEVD

Molecular target: Flag-tagged N-CoR (nuclear receptor co-repressor) (UniProt O75376)
Assay: affinity purification with mass spectrometry; flag-tagged N-CoR from 293T cells incubated with protease-depleted, column purified cytosolic extract of H2170 cells; precipitated with anti-flag antibody; bands from SDS-PAGE excised and identified by MS

binding: binds
Substance: Hsc70 (from UniProt P11142 1-646)

Results are given in words; binding and its absence hold for the method and conditions named. In cells and extracts the contact can be indirect. Here binding means that the protein was enriched with, or labelled near, the bait; the list need not be complete.
